Values quoted from earlier work, collected in patent US6583167B2, “Methods and kits for treating and diagnosing leiomyomas” (Ortho-McNeil Pharmaceutical, Inc., priority 1997, dated 2003).
For at least one compound, name, drawing or mass did not settle the structure.

Test system: uterine leiomyoma

CC#C[C@]1(O)CC[C@H]2[C@@H]3CCC4=CC(=O)CCC4=C3[C@@H](c3ccc(N(C)C)cc3)C[C@@]21C [RU 486]
reduction of uterine leiomyoma size (hormonal treatment of women with uterine leiomyomas, recent studies (refs 2-5)): 34%-61% | decrease in fibroid size (treatment with the antiprogesterone (refs 5, 16)): 49%
